PubChem BioAssay AID602196 | INSERM – 2012
The whole screen tested about 23,000 reagents; shown is a random part of them. 455 of them (2%) count as active. 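Active includes both protection and sensitisation; some change values fall well beyond the stated -50 to +50 range.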 Entries without a mark were called inactive. The record does not give: the amount of reagent.

- Aim: 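Knock-downs that protect lung cancer cells from cisplatin or sensitise them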
- System: human A549 lung cancer cells
- Reagents: siRNA pair against human genes
- Time to read-out: 48 h transfection before cisplatin; time from cisplatin to read-out not stated
- Challenge: cisplatin at a dose killing half of control-siRNA cells; exact dose and duration not given
- Detection: 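Shift in cisplatin death relative to control siRNA, from -50 (all cells die) to +50 (no cells die); siRNAs harmful on their own scored 0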
- Scale: two-siRNA summed score (-2 to +2): higher = both siRNAs protect from cisplatin killing; -2 means both sensitise; mean protection from cisplatin (shift in death) and protection from cisplatin (shift in death), siRNA C and protection from cisplatin (shift in death), siRNA D: higher = protection from cisplatin killing
- Call rule: 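Each siRNA scores 0 if harmful alone by LDH or WST-1, otherwise +1 if it reduces and -1 if it increases cisplatin killing; a gene is active when both siRNAs agree (sum +2 or -2)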
- Meaning of the calls: active = both siRNAs shift cisplatin killing the same way; inactive = no consistent shift, or siRNA harmful alone

| gene knocked down | PubChem SID | two-siRNA summed score (-2 to +2) | mean protection from cisplatin (shift in death) (%) | protection from cisplatin (shift in death), siRNA C (%) | protection from cisplatin (shift in death), siRNA D (%) |
| --- | --- | --- | --- | --- | --- |
| SIN3B (SIN3 transcription regulator family member B) | SID131505982 | 0 | -2.2 | 9.5 | -13.9 |
| SHH (sonic hedgehog signaling molecule) | SID131510660 | 0 | 3.5 | -1.1 | 8.1 |
| RTP2 (receptor transporter protein 2) | SID131500817 | -1 | -15.6 | -7.6 | -23.6 |
| KLF10 (KLF transcription factor 10) | SID131502180 | -1 | -4.6 | -11.5 | 2.3 |
| TRUB2 (TruB pseudouridine synthase family member 2) | SID131508911 | 0 | 1.6 | -2 | 5.2 |
| CSPG4 (chondroitin sulfate proteoglycan 4) | SID131507178 | 0 | -0.4 | -15.1 | 14.2 |
| TP53I11 (tumor protein p53 inducible protein 11) | SID131507829 | 0 | 0.3 | -0.5 | 1.2 |
| LOC57228 | SID131516809 | 0 | 11.7 | 7.5 | 15.8 |
| PLAC9P1 (placenta associated 9 pseudogene 1) | SID131513348 | 0 | 6.5 | 12.8 | 0.1 |
| LOC147166 | SID131508813 | 0 | 1.5 | 8.2 | -5.2 |
| CST8 (cystatin 8) | SID131515167 | 0 | 8.8 | 13.3 | 4.2 |
| NDRG2 (NDRG family member 2) | SID131516089 | 0 | 10.2 | 9.1 | 11.3 |
| KIF1C (kinesin family member 1C) | SID131500388 | -2 (active) | -16 | -21.1 | -11 |
| LOC442369 | SID131514993 | 0 | 8.5 | 16.4 | 0.7 |
| LOC440992 | SID131515670 | 0 | 9.5 | 7.3 | 11.7 |
| AHNAK2 (AHNAK nucleoprotein 2) | SID131503605 | 0 | -9 | 0.3 | -18.2 |
| TMEM178A (transmembrane protein 178A) | SID131510351 | 0 | 3.2 | 0 | 6.4 |
| CALML6 (calmodulin like 6) | SID131518452 | 0 | 19.9 | 24.4 | 15.4 |
| TEX47 (testis expressed 47) | SID131516360 | 0 | 10.7 | 8.1 | 13.3 |
| HGD (homogentisate 1,2-dioxygenase) | SID131500505 | -1 | -24.1 | -35.6 | -12.5 |
| H4C3 (H4 clustered histone 3) | SID131506608 | 0 | -1.2 | 1.1 | -3.6 |
| LOC402679 | SID131510871 | 0 | 3.7 | 10.1 | -2.7 |
| BTK (Bruton tyrosine kinase) | SID131509352 | 0 | 2.1 | 2.9 | 1.2 |
| LOC402200 | SID131505358 | 0 | -3.3 | 4.2 | -10.7 |
| ZNF777 (zinc finger protein 777) | SID131517955 | 0 | 15.6 | 11.5 | 19.7 |
| PRMT6 (protein arginine methyltransferase 6) | SID131507008 | 0 | -0.7 | -11.1 | 9.7 |
| E2F8 (E2F transcription factor 8) | SID131521087 | 1 | 12.2 | 6.6 | 17.7 |
| PKN2 (protein kinase N2) | SID131500348 | -2 (active) | -19.6 | -20.9 | -18.3 |
| MYO7A (myosin VIIA) | SID131512870 | 0 | 5.9 | -8.8 | 20.6 |
| PLA2R1 (phospholipase A2 receptor 1) | SID131500638 | -1 | -18.8 | -37.5 | -0.1 |
| FCER1A (Fc epsilon receptor Ia) | SID131502617 | -1 | 0 | -5.9 | 5.9 |
| EXTL3 (exostosin like glycosyltransferase 3) | SID131504410 | 0 | -5.5 | -17.1 | 6.1 |
| GCAT (glycine C-acetyltransferase) | SID131515319 | 0 | 9 | 13.6 | 4.3 |
| LOC389184 | SID131505055 | 0 | -3.9 | -6.9 | -0.9 |
| PNMA2 (PNMA family member 2) | SID131515227 | 0 | 8.9 | 5.2 | 12.5 |
| ADGRL1 (adhesion G protein-coupled receptor L1) | SID131513924 | 0 | 7.2 | 5.1 | 9.3 |
| PPIA (peptidylprolyl isomerase A) | SID131507609 | 0 | 0.1 | 1.6 | -1.5 |
| SPP2 (secreted phosphoprotein 2) | SID131513253 | 0 | 6.4 | 7.7 | 5.1 |
| CHRFAM7A (CHRNA7 (exons 5-10) and FAM7A (exons A-E) fusion) | SID131501936 | -1 | -6.5 | -16.9 | 3.9 |
| CYRIA (CYFIP related Rac1 interactor A) | SID131506576 | 0 | -1.3 | -8.6 | 6 |
| MTRES1 (mitochondrial transcription rescue factor 1) | SID131505555 | 0 | -3 | 2.2 | -8.1 |
| MYLK3 (myosin light chain kinase 3) | SID131510307 | 0 | 3.1 | 12.9 | -6.7 |
| IGHV3OR16-11 (immunoglobulin heavy variable 3/OR16-11 (pseudogene)) | SID131522203 | 1 | 16.8 | 7.7 | 26 |
| SOHLH2 | SID131515426 | 0 | 9.2 | 4.6 | 13.7 |
| LOC389657 | SID131509635 | 0 | 2.3 | 3.4 | 1.3 |
| UPRT (uracil phosphoribosyltransferase homolog) | SID131523150 | 2 (active) | 21.6 | 22.3 | 20.9 |
| FAM153A (family with sequence similarity 153 member A) | SID131511464 | 0 | 4.4 | 2.7 | 6 |
| MUC6 (mucin 6, oligomeric mucus/gel-forming (gene/pseudogene)) | SID131500754 | -1 | -16.5 | -33.5 | 0.5 |
| KIR3DL3 | SID131520633 | 1 | 10.6 | 15.9 | 5.2 |
| LOC440938 | SID131512076 | 0 | 5.1 | 8.2 | 1.9 |
| MISP (mitotic spindle positioning) | SID131510432 | 0 | 3.2 | 7 | -0.6 |
| BIRC8 (baculoviral IAP repeat containing 8) | SID131511964 | 0 | 5 | 0.6 | 9.3 |
| CCL25 (C-C motif chemokine ligand 25) | SID131504525 | 0 | -5.2 | 1.8 | -12.1 |
| TATDN2 (TatD DNase domain containing 2) | SID131509877 | 0 | 2.6 | 8.4 | -3.2 |
| PEAK3 (PEAK family member 3) | SID131520518 | 1 | 10.2 | 14.2 | 6.2 |
| NADK2 (NAD kinase 2, mitochondrial) | SID131517057 | 0 | 12.3 | 10.5 | 14.1 |
| ZNF280B (zinc finger protein 280B) | SID131519406 | 1 | 5.4 | 18.5 | -7.8 |

Limited to “protection from cisplatin (shift in death), siRNA D (%)” (3 entries from above):
SOHLH2 [SID131515426] = 13.7
LOC389657 [SID131509635] = 1.3
UPRT (uracil phosphoribosyltransferase homolog) [SID131523150] = 20.9 (active)
